According to US20150218599A1, “METHODS FOR PRODUCTION OF ALCOHOLS FROM CARBOXYLIC ACIDS VIA FERMENTATION” (Cornell University, priority 2012, published 2015):
Where “and” joins values, the source holds several entries; their conditions need not be identical. Equal entries are not always repeated.

Tested on: C. ragsdalei P11
Test: Carboxylic acid reduction in batch cultures with constant syngas supply
Assay type: cell-based, Clostridium ragsdalei
Conditions: 15 mM carboxylic acid
Experimental: All chemicals were purchased from Sigma-Aldrich, St. Louis, Mo., unless stated otherwise. Bacterial strain and growth conditions. Most experiments were conducted with C. ljungdahlii ERI-2 (ATTC 55380), which has been used successfully for syngas to ethanol fermentation. Some experiments were repeated with C. ragsdalei P11 (ATTC BAA-622). Bacteria were grown anaerobically at 35° C. in medium designed for efficient syngas fermentation. This medium is mostly based on ATCC medium 1754 but contains higher concentrations of the macronutrient elements. The yeast extract concentration was 0.5 g/L or 0.0 g/L as indicated for each experiment; the concentration of MES (2-(N-morpholino)ethanesulfonic acid) was 150 mM; carboxylic acids (propionic, n-butyric, isobutyric, n-valeric or n-caproic acid) were added to final concentrations of 15 mM before adjustment of the pH to 5.5. The syngas atmosphere was a synthetic blend of 60% [vol/vol]carbon monoxide, 35% hydrogen, and 5% carbon dioxide (Airgas East, Ithaca, N.Y.). Precultures of C. ljungdahlii or C. ragsdalei were grown in 250 ml serum bottles containing 20 ml medium with 0.5 g/L or 0.0 g/L yeast extract (the latter for inoculation of experiments with no yeast extract) and syngas in the headspace at a pressure of 28 psi with finite amounts of syngas. Precultures were maintained in an active state by weekly transfer of 2% into a fresh serum bottle with a headspace of finite syngas.
Experimental setup. The experiments to determine the ability of C. ljungdahlii to reduce propionic acid, n-butyric acid, n-valeric acid, n-caproic acid, or isobutyric acid (2-methyl propionic acid) to the corresponding alcohols were performed in triplicate in 250 ml rubber-stoppered Pyrex glass bottles (Fisher Scientific, Pittsburgh, Pa.), which were used as batch systems in regards to the growth medium, but with constant syngas supply (FIG. 1A). Three stainless steel needles of different length (21 gauge, Becton Dickinson Franklin Lakes, N.J., and ColeParmer, Vernon Hills, Ill.) were punched through each rubber stopper as gas supply, vent, and sample ports. The reactors were filled with 220 mL medium containing 0.5 g/L yeast extract and one of each carboxylic acids at a concentration of 15 mM, autoclaved, and then equipped with fermentation airlocks (www.winemakingsuperstore.com) filled with 5% sulfuric acid to prevent contamination by other microbes or oxygen, and placed in a temperature-controlled recirculating water bath for mechanical agitation using a 15 multi-position IKA magnetic stirrer (Cole-Parmer Vernon Hills, Ill. 60061 USA). […]
Analytical procedures. Cell dry weight concentration in the cultures was determined through measurement of the optical density with a Milton Roy Spectronic 1201 spectrophotometer at a wavelength of 600 nm after determining a correlation coefficient of 242 mg dry weight/(L*OD600nm). The carbon content was calculated using the universal proportion of elements in microbial biomass (C5H7O2N). A gas chromatography system (HP 5890, Hewlett Packard, Palo Alto, Calif.), which was equipped with a 7673 autoinjector and flame ionization detector, was used for the quantification of carboxylic acids and alcohols. […]

Structure (SMILES): CCCC(=O)O [n-butyric acid]
- alcohol from carboxylic acid produced at end of experiment: 4.81 mM and 4.81 ± 1.55 mM
- consumed carboxylic acid: 6.85 ± 1.23 mM
- final acetic acid produced at end of experiment: 64.13 ± 11.64 mM
- final ethanol produced at end of experiment: 24.87 ± 9.75 mM
- final pH (start pH 5.5): 4.83 ± 0.10
